Reference: article PMC11058670
No constants are given. Whether binding was seen depends on the method and setting. For some assays here: In cells and extracts the contact can be indirect. Some results given as binding are weak or reduced against the parent protein; the word gives no strength. For some assays here: Tags and fused reporters may be left off the sequences shown.

Chains of the proteins cited; added tags and fusions are not shown.
UniProt Q9NRC8: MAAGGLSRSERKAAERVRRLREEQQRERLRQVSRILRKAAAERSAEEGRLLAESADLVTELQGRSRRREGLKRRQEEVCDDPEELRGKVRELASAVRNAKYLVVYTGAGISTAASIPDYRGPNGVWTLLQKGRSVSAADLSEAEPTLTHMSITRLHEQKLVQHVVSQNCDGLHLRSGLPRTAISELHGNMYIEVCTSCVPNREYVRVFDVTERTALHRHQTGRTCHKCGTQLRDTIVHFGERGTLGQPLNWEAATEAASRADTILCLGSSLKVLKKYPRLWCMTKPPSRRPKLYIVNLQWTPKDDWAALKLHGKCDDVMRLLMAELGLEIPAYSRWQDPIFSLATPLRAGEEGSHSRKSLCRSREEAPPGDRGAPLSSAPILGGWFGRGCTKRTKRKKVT

What was measured:
GST-HIC1 fusion protein = target: T1, GST-HIC1 fusion protein (UniProt Q14526); experiment: pull-down; His-Sirt7 and GST-HIC1 fusion proteins mixed in a GST or His buffer at 4°C for 12 h; anti-His or anti-GST magnetic beads for more than 4 h; Western blot; both purified
T1 sequence: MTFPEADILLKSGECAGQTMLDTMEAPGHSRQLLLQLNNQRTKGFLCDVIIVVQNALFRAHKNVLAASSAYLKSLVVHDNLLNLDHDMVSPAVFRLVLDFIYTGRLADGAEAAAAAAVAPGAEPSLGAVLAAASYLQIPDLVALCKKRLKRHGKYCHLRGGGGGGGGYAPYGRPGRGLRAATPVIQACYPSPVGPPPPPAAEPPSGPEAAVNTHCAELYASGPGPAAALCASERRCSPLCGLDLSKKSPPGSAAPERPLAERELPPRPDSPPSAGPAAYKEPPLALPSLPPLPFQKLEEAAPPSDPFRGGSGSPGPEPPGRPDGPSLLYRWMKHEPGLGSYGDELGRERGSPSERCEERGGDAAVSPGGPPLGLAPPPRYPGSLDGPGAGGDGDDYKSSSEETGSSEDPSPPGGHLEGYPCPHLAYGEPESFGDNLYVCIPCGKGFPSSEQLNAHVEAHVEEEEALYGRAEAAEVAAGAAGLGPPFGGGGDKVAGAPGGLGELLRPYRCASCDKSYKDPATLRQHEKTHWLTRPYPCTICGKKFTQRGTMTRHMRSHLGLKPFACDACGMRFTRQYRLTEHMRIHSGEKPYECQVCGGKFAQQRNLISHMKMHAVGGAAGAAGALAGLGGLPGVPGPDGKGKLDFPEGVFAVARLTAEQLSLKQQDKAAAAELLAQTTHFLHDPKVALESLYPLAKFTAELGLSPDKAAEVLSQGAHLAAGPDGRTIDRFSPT

[1] = target: T2, hypermethylated in cancer 1 (HIC1) (human (endogenous in HGECs)) (UniProt Q14526); experiment: co-IP; endogenous proteins in HGEC extracts; primary antibodies with protein A/G Dynabeads, 12 h at 4°C; IgG control; Western blot
T2 sequence: T1 sequence

Substance	binding (GST-HIC1 fusion protein)	binding [1]
His-Sirt7 fusion protein (from UniProt Q9NRC8 1-400)	binds	
Sirtuin 7 (Sirt7) (from UniProt Q9NRC8 1-400)		binds
